Source: PMC9346556

The chains behind the UniProt entries cited, without tags or fusion partners. Where a name states a change or a piece, a line headed by the entry shows the natural chain unless it says otherwise.
UniProt P36874: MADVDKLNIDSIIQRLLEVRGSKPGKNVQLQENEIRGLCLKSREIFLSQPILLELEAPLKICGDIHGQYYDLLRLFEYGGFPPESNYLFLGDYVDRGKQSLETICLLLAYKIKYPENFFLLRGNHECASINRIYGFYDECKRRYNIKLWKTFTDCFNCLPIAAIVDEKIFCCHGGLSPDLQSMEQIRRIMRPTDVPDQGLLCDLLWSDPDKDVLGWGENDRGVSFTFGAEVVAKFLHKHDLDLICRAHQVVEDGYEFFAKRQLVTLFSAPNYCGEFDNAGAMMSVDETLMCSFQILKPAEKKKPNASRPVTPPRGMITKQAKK

Molecular target: T1, PbLRR1 expressed in Xenopus oocytes from cRNA (PbLRR1-pGADT7 template), HA-tagged (P. berghei)
T1 sequence: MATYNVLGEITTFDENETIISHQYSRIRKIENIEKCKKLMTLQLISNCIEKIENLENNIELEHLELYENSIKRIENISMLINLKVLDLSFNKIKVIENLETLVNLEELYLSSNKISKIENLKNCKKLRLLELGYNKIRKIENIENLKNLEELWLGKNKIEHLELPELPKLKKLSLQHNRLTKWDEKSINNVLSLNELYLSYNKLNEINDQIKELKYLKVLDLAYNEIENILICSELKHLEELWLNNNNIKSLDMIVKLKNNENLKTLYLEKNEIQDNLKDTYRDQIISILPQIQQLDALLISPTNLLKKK
Experiment: co-IP; Xenopus oocytes pre-injected with peptides (100 ng), control peptide P0 or PBS 1 h before PbLRR1 cRNA; extracts precipitated with anti-PP1 mAb (blot anti-HA) and with anti-HA (blot anti-PP1)

Xenopus PP1 catalytic subunit (XePP1c), endogenous in oocytes (from UniProt P36874) (enzyme)
binding: binds

Results are given in words; binding and its absence hold for the method and conditions named. In cells and extracts the contact can be indirect. Binding calls can cover weak binding; strength is not graded here. Tags and fused reporters may be left off the sequences shown.
